Source: paper PMC3176784
No constants are given. Whether binding was seen depends on the method and setting. Binding seen in cells or lysates may run through a third protein. Binding can be weak; no strength is given. For some of these results: Sequences can lack the tags named with a protein.

Legend:
Assay in all cases: pull-down; GST fusion proteins with portions of PLC-β3-CT mixed with precleared lysates of Ba/F3 cells (with or without IL-3), 2 h at 4°C; lysis buffer 20 mM Tris-HCl pH 8.0, 150 mM NaCl, 1 mM EDTA, 1% Nonidet P-40; six washes; immunoblot with anti-Stat5 or anti-SHP-1; only the target purified
[1] = target: T1, GST fusion protein of PLC-β3 residues 983–1234 (mouse) (UniProt P51432)
T1 sequence: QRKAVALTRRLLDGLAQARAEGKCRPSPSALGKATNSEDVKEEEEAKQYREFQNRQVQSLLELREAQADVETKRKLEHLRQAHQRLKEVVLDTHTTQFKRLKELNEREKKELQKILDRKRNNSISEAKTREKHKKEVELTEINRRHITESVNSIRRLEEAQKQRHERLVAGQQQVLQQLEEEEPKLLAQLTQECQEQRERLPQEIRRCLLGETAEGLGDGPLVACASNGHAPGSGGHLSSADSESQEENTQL

[2] = target: T2, PLC-β3 region a (positions 917–943) (mouse) (UniProt P51432)
T2 sequence: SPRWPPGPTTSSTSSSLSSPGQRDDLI

[3] = target: T3, PLC-β3 region c (positions 1032–1069) (mouse) (UniProt P51432)
T3 sequence: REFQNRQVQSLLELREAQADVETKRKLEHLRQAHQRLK

[4] = target: T4, PLC-β3 region b (positions 983–1000) (mouse) (UniProt P51432)
T4 sequence: QRKAVALTRRLLDGLAQA

Measured: binding

Stat5 (mouse (endogenous in Ba/F3))
binds: all assays above
